Experimental data: patent publication US7012082B2, “Method of correcting HERG channel dysfunction” (priority 2002, dated 2006)
Like-named read-outs stand apart in the source and are kept apart here.

Assays:
clinical = conditions: human, in vivo, po, 60 mg
[1] = healthy volunteers, cited from earlier work
[2] = even in doses that exceed ten-fold recommendations; Pratt, et al., 1999b; cited from earlier work

For `CC(C)(C(=O)O)c1ccc(C(O)CCCN2CCC(C(O)(c3ccccc3)c3ccccc3)CC2)cc1` (stereo not shown) [fexofenadine], the Cmax (clinical) is given as 262 nM, the “mean Cmax” value ([1]; oral 60 mg) is given as 141 ng/mL and the “mean Cmax” value ([1]; oral 180 mg) is given as 494 ng/mL. The “effect on the QT interval on the ECG” value [2] was “not affect the QT interval”.
